In US20160201132A1, “GENE EXPRESSION BIOMARKERS OF LAQUINIMOD RESPONSIVENESS” (Teva Pharmaceutical Industries Ltd., priority 2013, published 2016):
This continues a long series; more values of the same kind are listed elsewhere.

System: PBMC of RRMS patients
Experiment: Gene expression microarray analysis (HG-U133A-2) of PBMC from RRMS patients treated with LAQ, ancillary study to ALLEGRO
Assay type: in vivo, human
Details: for Fold-Change (4.0 vs. 0.0): after six months of treatment; for Fold-Change (1.0 vs. 0.0): one month of treatment
Excerpt: The goal of this ancillary study was to characterize gene expression changes and corresponding biological mechanisms induced in PBMC of RRMS patients by LAQ treatment. According to ALLEGRO clinical trial inclusion criteria, 25 patients were randomly assigned to receive LAQ (n=13, age 38.8±2.3 years, female/male ratio: 8/5) or placebo (n=12, age 37.2±3.4 years, female/male ratio: 8/4).
Peripheral blood samples were obtained from RRMS patients at baseline before start of LAQ treatment or placebo, after 0, 1, 6 and 24 month of treatment (visit 0, 1, 6 and 7 according to ALLEGRO clinical trial protocol correspondently) for gene microarray analysis.
Briefly, 1) Peripheral blood mononuclear cells (PBMC) were obtained from RRMS patients that participated in ALLEGRO and were treated daily with 0.6 mg LAQ or placebo. PBMC were subjected for gene expression analysis (HU-133A-2-Affymatrix arrays) at baseline and at 1 and 6 months of LAQ treatment; 2) Data was analyzed by Partek Genomics Solution software. Most informative genes (MIGs) were defined as those that differentiated between groups with p<0.01. Gene functional annotation, enrichment and pathway analysis were performed by Ingenuity software. For each time point, genes that changed in placebo group were excluded from further analysis; and 3) Verification of LAQ related mechanism was performed by Western blot.
PBMC were extracted from 15 ml peripheral blood, separated by Ficoll-Hypaque gradient. Total RNA was extracted using both Trizol (Invitrogen, USA) and Phase-Lock-Gel columns (Eppendorf, Germany) including a DNase digestion step. RNA integrity was assessed by RNA Experion automated electrophoresis system (Bio-Rad Laboratories, Hercules, Calif.).
Probe synthesis using 3 μg total RNA, hybridization, detection, and scanning was performed according to the standard Affymetrix, Inc. USA protocols; cDNA was synthesized using the Two-Cycle cDNA Synthesis Kit (Affymetrix, Inc., USA), and in-vitro transcription performed with the GeneChip IVT Labeling Kit (Affymetrix, Inc., USA). The biotin-labeled IVT-RNA was hybridized to HG-U133A-2 arrays containing 18,400 gene transcripts, each corresponding to 14,500 well-annotated human genes, washed in a GeneChip Fluidics Station 450 (Hewlett Packard, USA, GeneArray-™ scanner G2500A) and scanned according to the manufacturer's protocol (Affymetrix, Inc., USA).
Data analysis was performed on Partek Genomics Solution software (www.partek.com; Partek Incorporated, St. Louis, Mo.). Expression values were computed from raw CEL files by applying the Robust Multi-Chip Average (RMA) background correction algorithm. RMA correction included: 1) values background correction; 2) quintile normalization; 3) log 2 transformation; and 4) median polish summarization. The ANOVA, Repeated Measures and correlation analysis implicated in Partek software ware applied to evaluate LAQ effects. Most informative genes MIGs were defined as those that differentiated between experimental groups with p<0.01. All p-values were calculated for False Discovery Rate (FDR) multiple test correction at p=0.05.
Additionally, significance of individual genes was tested by parametric T-test and non parametric Mann-Whitney test using Bootstrapping approach based on repeated permutations of the data with 5% FDR for multiple testing.
Gene functional annotation, enrichment, and pathway analyses to identify the leading biological pathways that operated under LAQ treatment were performed by Ingenuity Pathways Analysis software (www.ingenuity.com).
ANOVA analysis was used to compare PBMC gene expression after 1, 6 or 24 month of LAQ treatment with baseline gene expression.
For each time point inventors performed analysis source of variation in dataset. (FIG. 1). Age, gender and batch effects were considered as confounders regarding LAQ or Placebo related changes. For each time point genes associated with Placebo effect were evaluated and excluded from further analysis. […]

## CCN(C(=O)c1c(O)c2c(Cl)cccc2n(C)c1=O)c1ccccc1 [LAQ, 5-chloro-N-ethyl-4-hydroxy-1-methyl-2-oxo-N-phenyl-1,2-dihydroquinoline-3-carboxamide]
CYP3A4 expression
  Fold-Change (4.0 vs. 0.0): −1.205
CYP4F8 expression
  Fold-Change (4.0 vs. 0.0): −1.221
CYP4F11 206153_at
  Fold-Change (1.0 vs. 0.0): −1.095
DNMBP expression
  Fold-Change (4.0 vs. 0.0): −1.219
DNMT3L expression
  Fold-Change (4.0 vs. 0.0): −1.22
DRD3 expression
  Fold-Change (4.0 vs. 0.0): −1.215
DUS4L expression
  Fold-Change (4.0 vs. 0.0): −1.207
DUSP13 expression
  Fold-Change (4.0 vs. 0.0): −1.222
EGF 206254_at
  Fold-Change (1.0 vs. 0.0): −1.734
EGFR expression
  Fold-Change (4.0 vs. 0.0): −1.198
EGR4 expression
  Fold-Change (4.0 vs. 0.0): −1.21
ELL expression
  Fold-Change (4.0 vs. 0.0): −1.207
ENDOD1 212573_at
  Fold-Change (1.0 vs. 0.0): −1.293
EPS8L3 expression
  Fold-Change (4.0 vs. 0.0): −1.214
EPS15L2 207750_at
  Fold-Change (1.0 vs. 0.0): −1.1441
ERBB3 expression
  Fold-Change (4.0 vs. 0.0): −1.216
ERCC4 expression
  Fold-Change (4.0 vs. 0.0): −1.198
ESRRG expression
  Fold-Change (4.0 vs. 0.0): −1.21
EYA3 expression
  Fold-Change (4.0 vs. 0.0): −1.196
FBXL18 expression
  Fold-Change (4.0 vs. 0.0): −1.1956
FGF13 expression
  Fold-Change (4.0 vs. 0.0): −1.202
FLJ14100 expression
  Fold-Change (4.0 vs. 0.0): −1.22
FLNA 200859_x_at
  Fold-Change (1.0 vs. 0.0): −1.155
FLNA 214752_x_at
  Fold-Change (1.0 vs. 0.0): −1.14
FOLR1 204437_s_at
  Fold-Change (1.0 vs. 0.0): −1.22
FOXA2 expression
  Fold-Change (4.0 vs. 0.0): −1.2197
FUT9 214046_at
  Fold-Change (1.0 vs. 0.0): −1.127
GFI1B 208501_at
  Fold-Change (1.0 vs. 0.0): −1.558
GFRA3 expression
  Fold-Change (4.0 vs. 0.0): −1.2047
GHRHR expression
  Fold-Change (4.0 vs. 0.0): −1.204
GJC1 expression
  Fold-Change (4.0 vs. 0.0): −1.197
GLRA3 210661_at
  Fold-Change (1.0 vs. 0.0): −1.156
GLT8D2 expression
  Fold-Change (4.0 vs. 0.0): −1.216
GNG11 204115_at
  Fold-Change (1.0 vs. 0.0): −1.679
GPD1 expression
  Fold-Change (4.0 vs. 0.0): −1.213
GPLD1 expression
  Fold-Change (4.0 vs. 0.0): −1.208
GPR144 expression
  Fold-Change (4.0 vs. 0.0): −1.199
GPR153 expression
  Fold-Change (4.0 vs. 0.0): −1.202
GPRC5A expression
  Fold-Change (4.0 vs. 0.0): −1.196
GREM1 218468_s_at
  Fold-Change (1.0 vs. 0.0): −1.116
GRHL2 219388_at
  Fold-Change (1.0 vs. 0.0): −1.131
GRIK2 215655_at
  Fold-Change (1.0 vs. 0.0): −1.122
GRIK2 expression
  Fold-Change (4.0 vs. 0.0): −1.2
GRIN2B expression
  Fold-Change (4.0 vs. 0.0): −1.206
GUCY1B3 211555_s_at
  Fold-Change (1.0 vs. 0.0): −1.618
HAB1 expression
  Fold-Change (4.0 vs. 0.0): −1.207
HDAC6 expression
  Fold-Change (4.0 vs. 0.0): −1.2058
HECW1 expression
  Fold-Change (4.0 vs. 0.0): −1.2103
HIP1 expression
  Fold-Change (4.0 vs. 0.0): −1.2
HIST1H2AI 214542_x_at
  Fold-Change (1.0 vs. 0.0): −1.2842
HLA-C 214459_x_at
  Fold-Change (1.0 vs. 0.0): −1.063
HLA-DRB6 expression
  Fold-Change (4.0 vs. 0.0): −1.2
HLA-E 200904_at
  Fold-Change (1.0 vs. 0.0): −1.126
HNF1B expression
  Fold-Change (4.0 vs. 0.0): −1.208
HOXB1 expression
  Fold-Change (4.0 vs. 0.0): −1.218
HOXB3 expression
  Fold-Change (4.0 vs. 0.0): −1.21
HOXD4 expression
  Fold-Change (4.0 vs. 0.0): −1.204
HR expression
  Fold-Change (4.0 vs. 0.0): −1.215
HSPG2 expression
  Fold-Change (4.0 vs. 0.0): −1.2
IFT122 expression
  Fold-Change (4.0 vs. 0.0): −1.223
IL1RAPL1 expression
  Fold-Change (4.0 vs. 0.0): −1.22
INPP5A expression
  Fold-Change (4.0 vs. 0.0): −1.213
IRF5 expression
  Fold-Change (4.0 vs. 0.0): −1.21
ITGA8 expression
  Fold-Change (4.0 vs. 0.0): −1.206
ITPR3 expression
  Fold-Change (4.0 vs. 0.0): −1.202
KCNA1 expression
  Fold-Change (4.0 vs. 0.0): −1.221
KCNJ13 expression
  Fold-Change (4.0 vs. 0.0): −1.206
KCNMB3 expression
  Fold-Change (4.0 vs. 0.0): −1.213
KIAA1199 212942_s_at
  Fold-Change (1.0 vs. 0.0): −1.121
KIF2A 203086_at
  Fold-Change (1.0 vs. 0.0): −1.277
KIR3DX1 expression
  Fold-Change (4.0 vs. 0.0): −1.1993
KLK7 expression
  Fold-Change (4.0 vs. 0.0): −1.214
KLK11 expression
  Fold-Change (4.0 vs. 0.0): −1.205
KLK13 expression
  Fold-Change (4.0 vs. 0.0): −1.22
KRT20 213953_at
  Fold-Change (1.0 vs. 0.0): −1.137
KRT33A expression
  Fold-Change (4.0 vs. 0.0): −1.198
LAMA2 expression
  Fold-Change (4.0 vs. 0.0): −1.205
LARGE expression
  Fold-Change (4.0 vs. 0.0): −1.207
LEFTY2 expression
  Fold-Change (4.0 vs. 0.0): −1.204
LENEP expression
  Fold-Change (4.0 vs. 0.0): −1.208
LEPROT 202378_s_at
  Fold-Change (1.0 vs. 0.0): −1.261
LOC440895 expression
  Fold-Change (4.0 vs. 0.0): −1.216
